Literature values, collected in article PMC7150867, “Molecular Imaging of Galectin-1 Expression as a Biomarker of Papillary Thyroid Cancer by Using Peptide-Functionalized Imaging Probes” (Biology, 2020).

System: gal-1
Conditions: immunohistochemistry on human thyroid biopsy samples
Protocol: Thyroid cancers are the most frequent endocrine cancers and their incidence is increasing worldwide. Thyroid nodules occur in over 19–68% of the population, but only 7–15% of them are diagnosed as malignant. Diagnosis relies on a fine needle aspiration biopsy, which is often inconclusive and about 90% of thyroidectomies are performed for benign lesions. Galectin-1 has been proposed as a confident biomarker for the discrimination of malignant from benign nodules. We previously identified by phage display two peptides (P1 and P7) targeting galectin-1, with the goal of developing imaging probes f ... || Aiming to develop a non-invasive diagnostic strategy able to discriminate benign from malignant thyroid lesions, we previously identified by phage display two gal-1-targeted 12-mer linear peptides, namely P1 and P7 [28], which could be used to functionalize imaging probes for molecular imaging of thyroid nodules and tumors. Their specific binding to gal-1 was confirmed by various methods before and after coupling to ultra-small superparamagnetic particles of iron oxide (USPIO), a contrast agent for magnetic resonance imaging (MRI). The two peptides discriminate thyroid carcinoma from benign ... || To validate the effectiveness of gal-1-targeted peptides, another type of probe and therefore imaging of thyroid cancer was explored. […]

HLWGWLYAPSFQ [Peptide P1, gal-1-targeted 12-mer linear peptide identified by phage display]
sensitivity of discriminating thyroid carcinoma from benign thyroid cases: 65% | specificity of discriminating thyroid carcinoma from benign thyroid cases: 67%
